These are yes or no findings as the source states them, for the method shown. Some binding calls cover weakened binding; strength is not graded here. For part of these data: Sequences can lack the tags named with a protein.

Amino acid sequences for entries named in this document (tags omitted). A change or cut given only in a name is not applied to a line headed by its entry.
UniProt Q16552: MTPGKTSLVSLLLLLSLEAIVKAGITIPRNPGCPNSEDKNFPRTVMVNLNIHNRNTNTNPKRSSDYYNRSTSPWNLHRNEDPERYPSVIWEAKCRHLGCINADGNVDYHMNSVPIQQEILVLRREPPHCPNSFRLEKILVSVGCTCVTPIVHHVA

The values below come from patent US20200347127A1 (CRESCENDO BIOLOGICS, published 2020).

The target of experiment [1] is recombinant human IL-17A (human, UniProt Q16552 24-155). As to the kind of experiment: Octet; concentrations and the partner are not given, IL-17A by the context of Example 12. (In BLI a coated tip is dipped into the sample, and binding shifts an interference pattern.)
The target of experiment [2] is T1, Pig IL17 (pig) (UniProt Q60I29).
T1 sequence (cytokine, looked up): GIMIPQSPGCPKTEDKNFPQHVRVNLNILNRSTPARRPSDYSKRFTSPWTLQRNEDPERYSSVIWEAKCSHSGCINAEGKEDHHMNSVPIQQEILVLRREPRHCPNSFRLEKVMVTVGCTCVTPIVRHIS
As to the kind of experiment: specificity ELISA on coated antigen, VH concentration not given. For orientation: An ELISA detects its analyte on a solid surface through an enzyme-linked reagent.

B1: Clone 1.2 (VHH)
VHH: EVQLVESGGGLVQPGGSLRLSCAASGFTFSSYSMYWVRQAPGKGLEWVAEIKQDGSVQYYVSDVKGRFTISRDNAKNSLYLQMNSLRAEDTAVYYCAKGEILPLYFDYWGQGTLVTVSS
On to B1, for which, in experiment [1], the binding result was “binds”.

B2: VH 1.10.1 (clone 1.10 expressed from phagemid vector: with linker residues and His tag) (VHH)
VHH: EVQLVESGGGLVQPGGSLRLSCAASGFTFSSYRMYWVRQAPGKGLEWVASIEQDGSEEYYVDSVKGRFTISRDNAKKSLFLQMNSLRAEDTAVYYCAKGEILPLYFDYWGQGTLVTVSS
notes: Human single VH domain
As to B2, in experiment [2], the binding entry is recorded as “binds”.

B3: VH 1.6.1 (clone 1.6 expressed from phagemid vector: with linker residues and His tag) (VHH)
VHH: EVQLVESGGGLVQPGGSLRLSCAASGFTFSSYSMYWVRQAPGKGLEWVAEIKQDGSEQYYVDSVKGRFTISRDNAKNSLYLQMNSLRAEDTAVYYCAKGEILPLYFDYWGQGTLVTVSS
notes: Human single VH domain
B3: the binding entry in experiment [2] was “binds”.
